# This is one part of the list. The data scatter; read single values as rough.
# Protein sequences, listed by entry. Tags and fused reporters are not part of them. Lines headed by an entry give the natural chain unless they say otherwise; changes in a name come on top.
# UniProt Q7Z5Y7: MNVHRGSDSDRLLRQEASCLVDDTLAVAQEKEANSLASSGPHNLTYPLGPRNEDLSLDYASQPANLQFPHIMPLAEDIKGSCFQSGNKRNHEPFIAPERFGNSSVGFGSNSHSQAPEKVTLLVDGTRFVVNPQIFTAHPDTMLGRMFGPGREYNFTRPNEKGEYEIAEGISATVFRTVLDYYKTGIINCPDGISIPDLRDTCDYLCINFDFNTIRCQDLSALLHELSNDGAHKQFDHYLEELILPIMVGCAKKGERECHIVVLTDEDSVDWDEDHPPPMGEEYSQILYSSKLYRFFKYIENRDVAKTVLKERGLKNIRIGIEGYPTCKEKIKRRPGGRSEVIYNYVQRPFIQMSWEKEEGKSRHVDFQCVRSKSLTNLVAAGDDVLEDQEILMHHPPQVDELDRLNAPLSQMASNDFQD
# UniProt P23458: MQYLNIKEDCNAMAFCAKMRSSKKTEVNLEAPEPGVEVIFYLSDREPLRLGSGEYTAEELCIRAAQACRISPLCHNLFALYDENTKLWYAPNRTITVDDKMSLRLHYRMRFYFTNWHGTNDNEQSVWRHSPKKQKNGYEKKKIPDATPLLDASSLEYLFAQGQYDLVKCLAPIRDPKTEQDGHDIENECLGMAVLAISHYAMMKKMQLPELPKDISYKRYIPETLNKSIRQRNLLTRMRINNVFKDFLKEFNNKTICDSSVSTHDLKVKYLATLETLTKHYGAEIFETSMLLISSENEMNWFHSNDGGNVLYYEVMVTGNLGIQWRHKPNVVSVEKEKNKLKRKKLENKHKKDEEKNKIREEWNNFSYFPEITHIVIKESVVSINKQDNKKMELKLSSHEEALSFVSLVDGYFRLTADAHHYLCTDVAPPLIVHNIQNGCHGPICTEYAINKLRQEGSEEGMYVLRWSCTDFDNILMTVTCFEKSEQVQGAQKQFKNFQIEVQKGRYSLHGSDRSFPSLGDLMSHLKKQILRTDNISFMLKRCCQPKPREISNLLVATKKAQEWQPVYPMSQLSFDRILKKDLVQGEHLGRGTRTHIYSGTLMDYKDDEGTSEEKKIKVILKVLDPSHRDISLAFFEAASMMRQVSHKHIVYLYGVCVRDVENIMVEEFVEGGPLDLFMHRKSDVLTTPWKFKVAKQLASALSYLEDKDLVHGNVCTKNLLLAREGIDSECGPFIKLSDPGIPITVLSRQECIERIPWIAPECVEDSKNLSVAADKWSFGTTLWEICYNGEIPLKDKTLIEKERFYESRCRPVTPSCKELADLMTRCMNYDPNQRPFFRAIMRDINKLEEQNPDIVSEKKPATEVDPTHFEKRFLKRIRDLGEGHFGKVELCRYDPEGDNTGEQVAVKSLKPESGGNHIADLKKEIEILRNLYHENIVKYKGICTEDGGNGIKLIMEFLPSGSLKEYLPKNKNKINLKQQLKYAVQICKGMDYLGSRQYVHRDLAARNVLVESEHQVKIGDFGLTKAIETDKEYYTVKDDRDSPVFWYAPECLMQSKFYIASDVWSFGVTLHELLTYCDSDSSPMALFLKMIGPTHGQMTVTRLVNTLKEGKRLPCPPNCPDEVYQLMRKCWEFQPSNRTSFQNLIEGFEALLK
# UniProt Q96AB3: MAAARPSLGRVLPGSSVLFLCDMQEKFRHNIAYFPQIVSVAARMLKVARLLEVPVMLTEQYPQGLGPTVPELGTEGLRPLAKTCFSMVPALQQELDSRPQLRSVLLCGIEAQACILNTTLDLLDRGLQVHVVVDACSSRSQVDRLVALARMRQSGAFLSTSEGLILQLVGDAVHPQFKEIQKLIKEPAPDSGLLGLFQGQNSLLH
# UniProt Q02241: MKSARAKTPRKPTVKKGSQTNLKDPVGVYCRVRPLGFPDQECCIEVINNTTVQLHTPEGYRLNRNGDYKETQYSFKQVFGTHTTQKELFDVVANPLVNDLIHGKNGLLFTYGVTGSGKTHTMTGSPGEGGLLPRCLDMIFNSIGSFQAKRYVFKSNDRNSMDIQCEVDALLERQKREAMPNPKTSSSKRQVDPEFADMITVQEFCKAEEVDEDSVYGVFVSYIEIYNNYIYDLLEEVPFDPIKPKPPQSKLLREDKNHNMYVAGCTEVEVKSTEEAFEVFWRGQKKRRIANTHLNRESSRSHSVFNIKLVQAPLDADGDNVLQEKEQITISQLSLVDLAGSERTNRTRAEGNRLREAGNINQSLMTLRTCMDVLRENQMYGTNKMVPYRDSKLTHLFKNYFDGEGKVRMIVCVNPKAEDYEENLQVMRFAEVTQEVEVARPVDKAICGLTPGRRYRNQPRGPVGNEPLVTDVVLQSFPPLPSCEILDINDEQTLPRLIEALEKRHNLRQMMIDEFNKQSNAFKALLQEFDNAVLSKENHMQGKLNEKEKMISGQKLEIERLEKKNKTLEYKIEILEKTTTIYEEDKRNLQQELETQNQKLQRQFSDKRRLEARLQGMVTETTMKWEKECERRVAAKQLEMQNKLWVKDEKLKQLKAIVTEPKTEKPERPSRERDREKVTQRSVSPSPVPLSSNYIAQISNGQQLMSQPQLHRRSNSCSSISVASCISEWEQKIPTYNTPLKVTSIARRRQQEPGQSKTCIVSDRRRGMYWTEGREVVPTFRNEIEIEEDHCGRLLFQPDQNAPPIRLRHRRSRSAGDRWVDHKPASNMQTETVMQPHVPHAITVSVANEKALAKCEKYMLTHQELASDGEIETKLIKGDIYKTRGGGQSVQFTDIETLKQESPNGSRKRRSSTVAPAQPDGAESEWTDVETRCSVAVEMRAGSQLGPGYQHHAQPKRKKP
# UniProt Q9H1H9: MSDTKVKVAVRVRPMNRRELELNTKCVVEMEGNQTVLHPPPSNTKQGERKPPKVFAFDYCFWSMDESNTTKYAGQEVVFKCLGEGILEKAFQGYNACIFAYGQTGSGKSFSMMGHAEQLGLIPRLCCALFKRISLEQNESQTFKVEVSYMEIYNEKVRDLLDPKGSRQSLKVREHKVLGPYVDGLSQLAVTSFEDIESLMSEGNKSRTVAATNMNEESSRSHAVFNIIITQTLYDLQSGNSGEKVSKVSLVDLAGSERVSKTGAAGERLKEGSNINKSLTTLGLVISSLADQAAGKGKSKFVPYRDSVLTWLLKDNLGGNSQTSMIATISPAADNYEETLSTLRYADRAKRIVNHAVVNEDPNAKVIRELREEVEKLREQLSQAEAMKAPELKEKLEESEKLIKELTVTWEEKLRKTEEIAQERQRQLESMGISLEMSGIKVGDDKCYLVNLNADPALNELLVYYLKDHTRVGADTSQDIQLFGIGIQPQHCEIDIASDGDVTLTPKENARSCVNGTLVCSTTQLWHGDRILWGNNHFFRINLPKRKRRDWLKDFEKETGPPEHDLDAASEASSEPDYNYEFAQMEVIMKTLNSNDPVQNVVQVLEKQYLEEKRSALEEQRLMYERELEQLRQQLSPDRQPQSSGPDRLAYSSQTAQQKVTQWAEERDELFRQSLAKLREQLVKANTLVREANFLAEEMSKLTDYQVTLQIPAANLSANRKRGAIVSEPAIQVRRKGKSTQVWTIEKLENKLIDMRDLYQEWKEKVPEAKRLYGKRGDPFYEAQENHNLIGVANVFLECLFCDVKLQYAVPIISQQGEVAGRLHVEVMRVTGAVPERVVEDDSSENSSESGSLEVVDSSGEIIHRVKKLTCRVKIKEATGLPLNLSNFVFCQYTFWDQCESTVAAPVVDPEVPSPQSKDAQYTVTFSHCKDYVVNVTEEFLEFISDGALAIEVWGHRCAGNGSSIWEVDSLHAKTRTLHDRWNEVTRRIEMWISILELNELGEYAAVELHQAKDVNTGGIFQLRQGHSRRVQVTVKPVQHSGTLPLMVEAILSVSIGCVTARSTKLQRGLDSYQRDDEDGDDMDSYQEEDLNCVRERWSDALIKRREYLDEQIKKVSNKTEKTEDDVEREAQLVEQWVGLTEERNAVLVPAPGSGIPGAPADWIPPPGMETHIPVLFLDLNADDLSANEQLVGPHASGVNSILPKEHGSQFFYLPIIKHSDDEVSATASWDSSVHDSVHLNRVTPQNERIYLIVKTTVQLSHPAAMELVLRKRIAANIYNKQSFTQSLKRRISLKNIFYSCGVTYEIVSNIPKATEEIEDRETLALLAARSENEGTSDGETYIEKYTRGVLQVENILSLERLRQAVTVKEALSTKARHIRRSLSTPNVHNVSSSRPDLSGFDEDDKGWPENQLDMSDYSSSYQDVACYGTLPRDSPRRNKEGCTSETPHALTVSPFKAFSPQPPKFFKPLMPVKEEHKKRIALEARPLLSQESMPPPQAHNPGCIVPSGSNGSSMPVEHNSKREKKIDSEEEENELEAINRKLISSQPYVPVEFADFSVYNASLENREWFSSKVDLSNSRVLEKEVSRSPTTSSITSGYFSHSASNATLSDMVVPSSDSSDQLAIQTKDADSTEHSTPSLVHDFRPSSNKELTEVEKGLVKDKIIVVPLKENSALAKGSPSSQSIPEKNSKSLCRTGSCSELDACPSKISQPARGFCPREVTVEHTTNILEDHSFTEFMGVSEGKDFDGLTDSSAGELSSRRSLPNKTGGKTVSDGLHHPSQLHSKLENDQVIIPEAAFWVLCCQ
# UniProt Q8NHM5: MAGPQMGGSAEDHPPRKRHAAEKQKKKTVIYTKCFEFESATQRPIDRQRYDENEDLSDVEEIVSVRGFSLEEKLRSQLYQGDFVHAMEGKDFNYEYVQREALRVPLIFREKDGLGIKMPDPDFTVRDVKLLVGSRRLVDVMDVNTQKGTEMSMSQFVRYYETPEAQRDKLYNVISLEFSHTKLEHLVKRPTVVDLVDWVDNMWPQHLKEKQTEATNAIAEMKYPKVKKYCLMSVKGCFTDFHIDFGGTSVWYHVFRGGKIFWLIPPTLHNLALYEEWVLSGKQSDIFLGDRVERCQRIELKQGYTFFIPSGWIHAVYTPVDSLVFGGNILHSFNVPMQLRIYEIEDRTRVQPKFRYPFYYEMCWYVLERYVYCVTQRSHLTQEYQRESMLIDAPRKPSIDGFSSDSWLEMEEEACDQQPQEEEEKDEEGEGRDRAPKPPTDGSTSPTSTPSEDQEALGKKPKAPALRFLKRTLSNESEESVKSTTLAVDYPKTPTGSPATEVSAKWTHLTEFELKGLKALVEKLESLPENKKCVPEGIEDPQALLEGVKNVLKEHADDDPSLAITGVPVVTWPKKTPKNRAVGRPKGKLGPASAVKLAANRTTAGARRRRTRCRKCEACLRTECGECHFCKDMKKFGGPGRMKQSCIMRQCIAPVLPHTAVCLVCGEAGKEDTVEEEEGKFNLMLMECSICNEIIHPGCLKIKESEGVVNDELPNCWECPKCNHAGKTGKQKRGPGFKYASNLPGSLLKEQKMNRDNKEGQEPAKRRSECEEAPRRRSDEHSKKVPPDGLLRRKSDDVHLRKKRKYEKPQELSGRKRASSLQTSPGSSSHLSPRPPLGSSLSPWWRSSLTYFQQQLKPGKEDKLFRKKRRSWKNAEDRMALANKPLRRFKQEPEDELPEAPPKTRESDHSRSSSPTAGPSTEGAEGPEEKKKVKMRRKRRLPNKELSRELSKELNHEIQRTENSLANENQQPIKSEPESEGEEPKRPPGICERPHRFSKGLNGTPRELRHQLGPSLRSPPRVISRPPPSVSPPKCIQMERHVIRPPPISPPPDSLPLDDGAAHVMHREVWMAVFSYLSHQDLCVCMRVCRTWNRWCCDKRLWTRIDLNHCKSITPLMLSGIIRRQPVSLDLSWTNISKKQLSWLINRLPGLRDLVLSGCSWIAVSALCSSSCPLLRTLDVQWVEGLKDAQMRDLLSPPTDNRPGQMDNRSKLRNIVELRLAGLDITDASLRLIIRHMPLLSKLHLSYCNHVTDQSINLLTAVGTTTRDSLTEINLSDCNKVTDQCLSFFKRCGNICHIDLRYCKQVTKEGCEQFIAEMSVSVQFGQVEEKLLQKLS
# Compound: ClCC(=O)N[C@H]1CCCc2ccccc12
# Assay: log2 mean competition ratio of IA-DTB cysteine labelling (DMSO/compound) (log2 ratio); higher = stronger cysteine engagement by compound
# Details: 50 µM; treatment time: 4 h; cell line lysate: HEK293T
# Description: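 IA-DTB competitive cysteine chemoproteomics in HEK293T RIPA lysate. Lysates were treated with compound 29 or 30 at 50 or 200 µM for 4 h, then IA-DTB (500 µM, 1 h), trypsin-digested, NeutrAvidin-enriched and analysed by diaPASEF. Competition ratio = intensity DMSO / intensity compound (n=4 treated, n=64 DMSO); binding: mean log2 CR ≥ 1 and p ≤ 0.05 plus QC filters. Target is the cysteine site.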
row,Target,log2 mean competition ratio
1,KIAA1217 C1693 (UniProt Q5T5P2),0.203
2,KCTD20 C369 (UniProt Q7Z5Y7),0.0325
3,ITPR1 C1197 (UniProt Q14643),-0.626
4,KIF20A C809 (UniProt O95235),0.455
5,KAT6A C33,0.0102
6,JAK1 C827 (UniProt P23458),-0.213
7,KIAA1522 C321 (UniProt Q9P206),-0.256
8,ISOC2 C136 (UniProt Q96AB3),0.478
9,KIF23 C165 (UniProt Q02241),-0.376
10,KIF21A C1437,0.091
11,KDM1A C600 (UniProt O60341),-0.0127
12,KDM3B C569 (UniProt Q7LBC6),0.236
13,ITPR2 C253 (UniProt Q14571),0.101
14,KDM3A C390 (UniProt Q9Y4C1),0.179
15,KIF1B C600 (UniProt O60333),0.132
16,KIF13A C958 (UniProt Q9H1H9),0.23
17,KAT6A C393,-0.107
18,KDM2B C770 (UniProt Q8NHM5),0.195
19,KIF21B C203 (UniProt O75037),-0.936
20,JAK1 C257 (UniProt P23458),-0.394

# Same assay, conditions: 200 µM; treatment time: 4 h; cell line lysate: HEK293T
row,Target,log2 mean competition ratio
1,KIAA1217 C1693 (UniProt Q5T5P2),-0.0527
2,KCTD20 C369 (UniProt Q7Z5Y7),0.119
3,ITPR1 C1197 (UniProt Q14643),0.065
4,KIF20A C809 (UniProt O95235),0.26
5,KAT6A C33,0.138
6,JAK1 C827 (UniProt P23458),0.421
7,KIAA1522 C321 (UniProt Q9P206),-0.14
8,ISOC2 C136 (UniProt Q96AB3),0.887
9,KIF23 C165 (UniProt Q02241),-0.0999
10,KIF21A C1437,-0.0909
11,KDM1A C600 (UniProt O60341),-0.0872
12,KDM3B C569 (UniProt Q7LBC6),0.582
13,ITPR2 C253 (UniProt Q14571),-0.124
14,KDM3A C390 (UniProt Q9Y4C1),0.105
15,KIF1B C600 (UniProt O60333),-0.0472
16,KIF13A C958 (UniProt Q9H1H9),0.0626
17,KAT6A C393,0.441
18,KDM2B C770 (UniProt Q8NHM5),0.0851
19,KIF21B C203 (UniProt O75037),0.229
20,JAK1 C257 (UniProt P23458),0.0236

# Reference: the supplement of paper PMC11732987, “Enantioselective OTUD7B fragment discovery through chemoproteomics screening and high-throughput optimisation” (Communications Chemistry, 2025)
